# Test: general procedure: Fmoc solid-phase peptide synthesis; Rink Amide resin (Nova, 0.3 mmol/g, PS/1% DVB, 100-200 mesh); HBTU/N-methyl morpholine in DMF
# Conditions: late stage modification step
substance,measurement,value
"(S)-alpha-(acetylamino)-1,3-dihydro-3-hydroxy-1-oxo-5-isobenzofuranpropanamido-glutamate-glutamate-isoleucine-glutamate-amine",step yield,64%

# Source: patent publication US20030096760A1 (SmithKlineBeecham Corporation, priority 1997, published 2003)
